# From patent US20110281950A1, “COMPOSITIONS AND METHODS FOR REDUCING PROLIFERATION AND VIABILITY OF LYMPHOBLASTOID CELLS” (priority 2010, published 2011)
# Tested on: Purified NK cells
# Assay: NK cell 51Cr release cytotoxicity assay, continuous treatment or washout (Example 7)
# Type: cell-based
# Conditions: SAHA 100, 500, 1000 nM; valproate 1, 2 mM
# Text: Purified NK cells in DMSO were used as a control. The cells were subsequently analyzed in an IFNγ ELISPOT assay or a ^51Cr release cytotoxicity assay.
structure (smiles),measurement,value
"O=C(CCCCCCC(=O)Nc1ccccc1)NO [SAHA, suberoylanilide hydroxamic acid, reference compound]",ADCC inhibition,no significant ADCC inhibition
